Measurements reported in paper PMC2360547, “The multikinase inhibitor midostaurin (PKC412A) lacks activity in metastatic melanoma: a phase IIA clinical and biologic study” (British Journal of Cancer, 2006).
Where “and” joins values, the source holds several entries; their conditions need not be identical. Equal values may be shown once.

How the values were obtained:
[1] = Tumour tissue concentrations by HPLC with fluorescence detection; assay type: in vivo, human; settings: tumour tissue to plasma, individual subjects
Method: Plasma concentrations of midostaurin and its two main metabolites CGP 62221 and CGP52421 e2 were determined using an HPLC method with fluorescence detection as reported previously ([Van Gijn et al, 1995]; [Propper et al, 2001]). […] Therefore, the tumour tissue was frozen and cut into as small as possible pieces with a scalpel. The pieces were weighed, added to 1 ml of water, vortexed and thereafter treated like plasma. The assay for plasma samples was validated with acceptable calibration curves, within-study variability and total recovery. The limit of quantitation (LOQ) in these analyses (defined as the concentration of the lowest QC sample with a mean recovery of 80–120% and a CV ⩽20%) was 36 nmol l^−1 for MIDOSTAURIN, 61 nmol l^−1 for CGP 62221, and 265 nmol l^−1 for CGP52421 e2. Due to limited availability of tumour tissue, the within-study validation for tumour assay was not performed. […] The LOQ in tissue homogenate was 48 nmol l^−1 for midostaurin, 82 nmol l^−1 for CGP 62221, and 357 nmol l^−1 for CGP52421 e2.

PKCξ = settings: read-out: IC50 for PKCξ; no reference given; cited from earlier work
PKC = settings: one patient only (Patient 10), day 28 biopsy
PKCδ = settings: read-out: IC50 for PKCδ; no reference given; cited from earlier work

## CO[C@@H]1[C@H](N(C)C(=O)c2ccccc2)C[C@H]2O[C@]1(C)n1c3ccccc3c3c4c(c5c6ccccc6n2c5c31)C(=O)NC4 [Midostaurin, N-benzoyl-staurosporine]
[1]
  Tissue/plasma ratios: 0.02 and 0.37 and 0.35 and 0.20 and 1.86 and 0.23 and 0.87 and 0.16 and 1.32
PKCξ
  IC50: > 1000 µM
PKC
  Inhibition of PKC activity in both cytosolic and particulate fractions: > 50%
PKCδ
  IC50: 0.36 µM
